Measurements taken from the supplement of paper PMC6411743.
± gives the standard deviation of the averaged measurements. The list shows a part of the results, in another mix than the full data.

Amino acid sequences for entries named in this document (tags omitted). A change or cut given only in a name is not applied to a line headed by its entry.
UniProt A6NFI3: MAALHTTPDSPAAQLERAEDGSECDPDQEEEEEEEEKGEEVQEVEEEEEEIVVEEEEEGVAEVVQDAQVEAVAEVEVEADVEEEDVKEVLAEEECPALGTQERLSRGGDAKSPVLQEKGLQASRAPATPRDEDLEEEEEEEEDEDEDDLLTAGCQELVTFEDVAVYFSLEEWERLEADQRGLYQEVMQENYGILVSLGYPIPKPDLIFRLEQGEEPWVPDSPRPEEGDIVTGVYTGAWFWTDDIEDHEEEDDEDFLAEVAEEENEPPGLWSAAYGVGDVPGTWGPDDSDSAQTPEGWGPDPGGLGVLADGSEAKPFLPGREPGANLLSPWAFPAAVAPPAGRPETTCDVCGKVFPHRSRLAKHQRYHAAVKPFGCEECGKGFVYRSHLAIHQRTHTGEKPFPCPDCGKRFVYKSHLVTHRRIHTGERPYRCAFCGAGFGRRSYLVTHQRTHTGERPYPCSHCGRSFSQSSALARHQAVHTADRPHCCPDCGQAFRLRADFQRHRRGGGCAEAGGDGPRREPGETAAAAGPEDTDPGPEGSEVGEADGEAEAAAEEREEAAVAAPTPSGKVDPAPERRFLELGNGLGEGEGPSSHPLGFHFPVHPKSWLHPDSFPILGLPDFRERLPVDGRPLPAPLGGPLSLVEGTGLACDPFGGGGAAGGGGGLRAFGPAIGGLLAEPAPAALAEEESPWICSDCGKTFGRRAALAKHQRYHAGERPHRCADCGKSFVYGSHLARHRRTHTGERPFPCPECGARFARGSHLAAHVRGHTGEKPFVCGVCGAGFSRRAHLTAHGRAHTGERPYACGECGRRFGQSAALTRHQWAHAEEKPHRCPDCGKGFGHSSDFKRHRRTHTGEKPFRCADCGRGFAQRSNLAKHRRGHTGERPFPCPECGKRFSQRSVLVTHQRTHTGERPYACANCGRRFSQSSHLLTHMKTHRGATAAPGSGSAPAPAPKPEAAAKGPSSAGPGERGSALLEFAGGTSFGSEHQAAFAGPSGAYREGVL
UniProt Q9UM13, whole entry: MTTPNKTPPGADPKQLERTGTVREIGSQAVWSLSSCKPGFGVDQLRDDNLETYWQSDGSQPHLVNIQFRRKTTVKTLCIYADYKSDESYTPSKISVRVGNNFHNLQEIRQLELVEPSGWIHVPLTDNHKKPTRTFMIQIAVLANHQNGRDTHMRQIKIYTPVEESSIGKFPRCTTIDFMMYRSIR
UniProt O95168, whole entry: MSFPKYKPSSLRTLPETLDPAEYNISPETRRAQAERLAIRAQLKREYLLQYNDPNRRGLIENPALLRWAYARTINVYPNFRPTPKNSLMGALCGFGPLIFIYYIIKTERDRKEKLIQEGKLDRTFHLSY
UniProt Q8TD31: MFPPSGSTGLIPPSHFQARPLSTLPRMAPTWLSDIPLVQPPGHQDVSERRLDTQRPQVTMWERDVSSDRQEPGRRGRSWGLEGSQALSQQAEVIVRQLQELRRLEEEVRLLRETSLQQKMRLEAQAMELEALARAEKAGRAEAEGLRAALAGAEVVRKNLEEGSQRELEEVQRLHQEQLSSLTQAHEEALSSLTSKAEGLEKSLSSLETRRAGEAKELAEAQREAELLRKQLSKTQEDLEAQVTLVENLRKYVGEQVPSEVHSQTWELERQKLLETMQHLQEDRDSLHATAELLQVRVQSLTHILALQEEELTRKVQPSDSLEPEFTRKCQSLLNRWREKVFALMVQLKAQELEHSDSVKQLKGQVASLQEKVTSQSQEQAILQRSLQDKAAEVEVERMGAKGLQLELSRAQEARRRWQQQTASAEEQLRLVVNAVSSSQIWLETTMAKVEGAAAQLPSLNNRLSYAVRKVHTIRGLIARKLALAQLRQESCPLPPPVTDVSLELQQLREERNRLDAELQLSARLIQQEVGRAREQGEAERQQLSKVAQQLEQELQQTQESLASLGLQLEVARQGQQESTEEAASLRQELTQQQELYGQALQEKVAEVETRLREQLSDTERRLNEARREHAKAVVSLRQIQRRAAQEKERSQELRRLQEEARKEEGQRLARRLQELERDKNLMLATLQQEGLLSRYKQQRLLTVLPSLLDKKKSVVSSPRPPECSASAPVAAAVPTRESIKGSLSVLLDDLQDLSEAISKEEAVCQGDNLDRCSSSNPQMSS
UniProt A4D1P6: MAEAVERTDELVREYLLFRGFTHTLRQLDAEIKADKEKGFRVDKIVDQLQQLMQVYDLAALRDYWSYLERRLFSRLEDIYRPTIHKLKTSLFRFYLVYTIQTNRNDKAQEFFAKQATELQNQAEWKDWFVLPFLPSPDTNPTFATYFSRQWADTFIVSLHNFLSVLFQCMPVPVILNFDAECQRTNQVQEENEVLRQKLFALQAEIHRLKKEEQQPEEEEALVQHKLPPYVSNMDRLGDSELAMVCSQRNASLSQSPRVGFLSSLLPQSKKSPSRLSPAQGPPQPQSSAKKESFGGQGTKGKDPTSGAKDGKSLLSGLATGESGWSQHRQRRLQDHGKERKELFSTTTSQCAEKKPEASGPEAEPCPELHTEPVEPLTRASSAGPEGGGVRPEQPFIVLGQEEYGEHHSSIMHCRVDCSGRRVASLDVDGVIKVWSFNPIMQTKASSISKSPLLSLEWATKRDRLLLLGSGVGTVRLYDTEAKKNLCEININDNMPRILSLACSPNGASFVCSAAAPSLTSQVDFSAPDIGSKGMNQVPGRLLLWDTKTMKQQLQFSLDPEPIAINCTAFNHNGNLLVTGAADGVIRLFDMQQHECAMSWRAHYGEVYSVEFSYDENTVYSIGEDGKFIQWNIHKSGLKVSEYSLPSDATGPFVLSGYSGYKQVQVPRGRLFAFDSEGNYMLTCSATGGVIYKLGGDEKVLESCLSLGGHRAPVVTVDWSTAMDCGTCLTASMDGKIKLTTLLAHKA
UniProt O15304: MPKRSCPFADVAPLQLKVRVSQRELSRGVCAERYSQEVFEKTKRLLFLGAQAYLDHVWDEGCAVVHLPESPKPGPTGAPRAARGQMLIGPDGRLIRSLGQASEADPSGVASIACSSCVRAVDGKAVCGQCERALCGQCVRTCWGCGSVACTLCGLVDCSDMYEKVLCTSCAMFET
UniProt Q8TE99: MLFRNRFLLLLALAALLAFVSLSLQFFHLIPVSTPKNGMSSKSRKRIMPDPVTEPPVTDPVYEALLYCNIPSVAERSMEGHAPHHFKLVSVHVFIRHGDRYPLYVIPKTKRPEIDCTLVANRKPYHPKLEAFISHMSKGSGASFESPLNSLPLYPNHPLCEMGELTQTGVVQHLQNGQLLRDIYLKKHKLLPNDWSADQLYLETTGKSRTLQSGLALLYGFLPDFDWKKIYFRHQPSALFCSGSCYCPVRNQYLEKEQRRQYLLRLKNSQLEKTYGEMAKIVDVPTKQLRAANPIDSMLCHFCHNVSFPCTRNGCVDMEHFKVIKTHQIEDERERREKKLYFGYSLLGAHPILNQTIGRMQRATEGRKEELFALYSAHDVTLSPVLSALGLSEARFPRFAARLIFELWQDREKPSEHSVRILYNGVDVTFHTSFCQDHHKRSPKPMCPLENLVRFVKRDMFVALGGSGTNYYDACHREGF
UniProt Q562E7: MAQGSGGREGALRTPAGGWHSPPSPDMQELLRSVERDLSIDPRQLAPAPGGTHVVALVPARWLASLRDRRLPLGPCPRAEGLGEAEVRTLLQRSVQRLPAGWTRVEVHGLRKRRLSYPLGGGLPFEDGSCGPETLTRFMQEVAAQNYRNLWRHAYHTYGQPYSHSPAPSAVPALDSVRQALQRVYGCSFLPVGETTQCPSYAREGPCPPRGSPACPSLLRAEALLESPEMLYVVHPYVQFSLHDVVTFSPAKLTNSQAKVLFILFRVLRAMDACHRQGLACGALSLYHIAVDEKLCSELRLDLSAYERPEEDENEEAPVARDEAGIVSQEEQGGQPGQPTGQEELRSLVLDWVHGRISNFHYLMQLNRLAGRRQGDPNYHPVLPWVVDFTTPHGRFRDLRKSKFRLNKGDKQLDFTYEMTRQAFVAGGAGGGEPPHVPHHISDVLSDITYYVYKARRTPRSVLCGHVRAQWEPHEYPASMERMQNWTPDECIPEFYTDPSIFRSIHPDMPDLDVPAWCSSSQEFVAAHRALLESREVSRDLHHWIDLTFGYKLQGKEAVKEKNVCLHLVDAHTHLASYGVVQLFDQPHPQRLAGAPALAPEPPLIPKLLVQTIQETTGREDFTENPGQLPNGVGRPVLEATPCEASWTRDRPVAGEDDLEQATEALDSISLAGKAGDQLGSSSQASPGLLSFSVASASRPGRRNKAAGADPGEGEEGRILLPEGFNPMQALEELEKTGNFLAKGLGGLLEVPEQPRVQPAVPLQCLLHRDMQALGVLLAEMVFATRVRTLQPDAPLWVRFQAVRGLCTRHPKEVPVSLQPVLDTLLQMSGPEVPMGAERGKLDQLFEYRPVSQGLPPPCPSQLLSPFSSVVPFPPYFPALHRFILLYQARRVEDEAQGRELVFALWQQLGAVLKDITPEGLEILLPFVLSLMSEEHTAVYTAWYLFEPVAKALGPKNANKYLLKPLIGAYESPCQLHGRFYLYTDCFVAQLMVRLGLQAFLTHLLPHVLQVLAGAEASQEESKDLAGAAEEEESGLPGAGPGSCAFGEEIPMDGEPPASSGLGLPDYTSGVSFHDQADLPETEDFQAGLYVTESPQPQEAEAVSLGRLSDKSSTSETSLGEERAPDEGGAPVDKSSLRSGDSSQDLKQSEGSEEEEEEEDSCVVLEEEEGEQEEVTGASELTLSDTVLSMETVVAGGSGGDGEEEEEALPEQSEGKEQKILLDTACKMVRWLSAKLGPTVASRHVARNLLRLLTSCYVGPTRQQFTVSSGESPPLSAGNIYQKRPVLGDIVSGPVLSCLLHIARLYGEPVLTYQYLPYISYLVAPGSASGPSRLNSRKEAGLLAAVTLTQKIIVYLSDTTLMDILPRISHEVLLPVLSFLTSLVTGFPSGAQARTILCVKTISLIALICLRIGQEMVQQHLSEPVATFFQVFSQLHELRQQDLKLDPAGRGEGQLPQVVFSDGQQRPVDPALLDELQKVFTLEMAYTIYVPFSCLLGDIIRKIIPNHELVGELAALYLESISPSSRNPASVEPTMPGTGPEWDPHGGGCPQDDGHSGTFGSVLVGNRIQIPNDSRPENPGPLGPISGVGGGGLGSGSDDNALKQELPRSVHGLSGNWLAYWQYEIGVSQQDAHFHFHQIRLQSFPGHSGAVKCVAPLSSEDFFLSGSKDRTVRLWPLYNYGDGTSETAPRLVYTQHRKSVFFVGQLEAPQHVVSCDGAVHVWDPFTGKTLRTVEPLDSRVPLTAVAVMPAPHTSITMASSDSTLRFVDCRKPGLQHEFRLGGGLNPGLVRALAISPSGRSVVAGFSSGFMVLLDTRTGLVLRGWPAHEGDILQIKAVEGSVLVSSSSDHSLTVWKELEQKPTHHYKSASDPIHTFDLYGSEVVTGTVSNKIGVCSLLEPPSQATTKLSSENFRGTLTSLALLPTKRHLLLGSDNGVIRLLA
UniProt Q96SY0, whole entry: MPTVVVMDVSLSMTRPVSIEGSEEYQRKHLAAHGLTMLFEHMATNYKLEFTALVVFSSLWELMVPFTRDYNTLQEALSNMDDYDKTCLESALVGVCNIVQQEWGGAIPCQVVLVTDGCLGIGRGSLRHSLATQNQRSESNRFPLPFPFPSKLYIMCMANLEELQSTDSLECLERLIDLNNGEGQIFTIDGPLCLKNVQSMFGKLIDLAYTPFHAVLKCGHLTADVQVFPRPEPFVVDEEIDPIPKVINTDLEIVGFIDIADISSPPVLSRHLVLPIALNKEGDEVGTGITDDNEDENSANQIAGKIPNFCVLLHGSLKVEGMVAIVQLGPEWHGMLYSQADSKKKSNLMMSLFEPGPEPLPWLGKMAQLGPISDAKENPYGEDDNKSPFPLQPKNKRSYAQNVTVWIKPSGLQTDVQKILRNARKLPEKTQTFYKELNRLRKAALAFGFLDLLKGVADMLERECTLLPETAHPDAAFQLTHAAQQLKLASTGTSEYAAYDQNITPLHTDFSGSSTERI
UniProt Q13114: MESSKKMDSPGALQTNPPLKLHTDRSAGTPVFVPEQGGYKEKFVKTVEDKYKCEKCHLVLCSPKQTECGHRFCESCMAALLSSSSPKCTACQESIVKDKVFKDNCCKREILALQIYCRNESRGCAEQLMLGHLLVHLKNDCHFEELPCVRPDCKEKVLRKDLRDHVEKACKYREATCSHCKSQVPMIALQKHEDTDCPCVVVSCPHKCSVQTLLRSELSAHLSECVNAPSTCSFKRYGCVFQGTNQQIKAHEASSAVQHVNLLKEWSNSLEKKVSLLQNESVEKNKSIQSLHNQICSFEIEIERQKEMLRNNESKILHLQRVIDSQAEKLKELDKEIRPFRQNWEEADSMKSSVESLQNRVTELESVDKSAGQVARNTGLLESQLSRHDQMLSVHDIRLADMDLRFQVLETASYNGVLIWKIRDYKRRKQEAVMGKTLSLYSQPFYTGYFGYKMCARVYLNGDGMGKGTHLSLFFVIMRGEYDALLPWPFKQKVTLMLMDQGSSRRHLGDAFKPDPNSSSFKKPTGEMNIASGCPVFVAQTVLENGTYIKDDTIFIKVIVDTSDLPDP

Compound: Nc1ncnc2c1ncn2[C@@H]1O[C@H](COP(=O)(O)OP(=O)(O)OP(=O)(O)O)[C@@H](O)[C@H]1O [adenosine triphosphate]
Test: NP40-soluble protein abundance relative to vehicle (solubility fold change) (ratio); higher = more soluble protein in presence of ATP
Procedure, shortened: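 Eight concentrations, 0.1 to 10 mM, were tested on Jurkat crude lysate for 10 min at room temperature and then 3 min at 37 °C, in three independent experiments. The lysate was solubilised with 0.8% NP40 and benzonase, ultracentrifuged, and the supernatant TMT-labelled for LC-MS/MS. Each value is the fold change against the detergent-processed vehicle in its own replicate, from vsn-normalised intensities.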

Target	NP40-soluble protein abundance (concentration: 1mM)	NP40-soluble protein abundance (concentration: 2mM)	NP40-soluble protein abundance (concentration: 4mM)	NP40-soluble protein abundance (concentration: 6mM)	NP40-soluble protein abundance (concentration: 8mM)	NP40-soluble protein abundance (concentration: 10mM)
C9IYN7 and related entries (UniProt Q0PNE2)	1.15 ± 0.26	1.04 ± 0.15	1.03 ± 0.23	0.833 ± 0.18	1.12 ± 0.12	1.03 ± 0.082
ZNF316 (UniProt A6NFI3)	0.974 ± 0.027	0.98 ± 0.055	0.947 ± 0.032	0.954 ± 0.048	0.969 ± 0.027	0.962 ± 0.034
A0A0U1RQS4|A0A0U1RR93|Q9BYB0 and related entries (UniProt Q9BYB0)	1.02 ± 0.045	0.9494 ± 0.0062	0.985 ± 0.013	0.954 ± 0.01	1.091 ± 0.005	1.05 ± 0.016
D6RA92 and related entries (UniProt Q9UM13)	1.13 ± 0.2	1.13 ± 0.043	1.08 ± 0.026	1.08 ± 0.012	1.1 ± 0.071	1.11 ± 0.083
C9JXQ9 and related entries (UniProt O95168)	0.925 ± 0.061	0.859 ± 0.033	0.8895 ± 0.0084	0.782 ± 0.014	0.881 ± 0.043	0.856 ± 0.041
B7Z2Y2 and related entries (UniProt Q14746)	1.01 ± 0.065	0.976 ± 0.072	0.982 ± 0.094	0.989 ± 0.096	0.986 ± 0.082	0.957 ± 0.041
C9JYS5 and related entries (UniProt J3QL63+J3QL47+Q9NYZ1+C9JYS5)	0.993 ± 0.14	0.944 ± 0.14	0.882 ± 0.092	0.898 ± 0.059	0.998 ± 0.071	0.914 ± 0.074
A0A0G2JJ47|A0A0G2JP87|A2ABH1 and related entries (UniProt Q8TD31)	1.01 ± 0.071	1.06 ± 0.064	1.06 ± 0.072	1.1 ± 0.07	0.959 ± 0.14	1.08 ± 0.07
A0A0U1RRH6 (UniProt O94880)	1.07 ± 0.054	1.1 ± 0.039	1.1 ± 0.032	1.2 ± 0.042	1.22 ± 0.016	1.32 ± 0.038
C9JSZ1 and related entries (UniProt Q96AE4)	0.95 ± 0.059	0.952 ± 0.019	0.927 ± 0.0085	0.985 ± 0.03	0.914 ± 0.017	0.893 ± 0.041
UniProt A4D1P6 and related entries	0.983 ± 0.042	0.926 ± 0.054	0.978 ± 0.056	0.947 ± 0.078	0.915 ± 0.037	0.971 ± 0.078
A0A0U1RRB6|Q9Y2D4 and related entries (UniProt Q9Y2D4)	0.983 ± 0.036	0.982 ± 0.034	0.985 ± 0.036	0.982 ± 0.028	0.969 ± 0.036	0.971 ± 0.06
UNC119B (UniProt A6NIH7)	1.03 ± 0.056	1.03 ± 0.055	1.02 ± 0.096	1.02 ± 0.095	0.985 ± 0.052	0.999 ± 0.059
B4DR80 and related entries (UniProt Q9Y6E0)	0.977 ± 0.081	0.984 ± 0.036	1.02 ± 0.058	1.02 ± 0.037	0.996 ± 0.038	0.954 ± 0.021
B4DTS2 and related entries (UniProt Q9BZL6)	1.087 ± 0.0089	1.04 ± 0.033	1.04 ± 0.053	0.974 ± 0.048	1.02 ± 0.027	0.988 ± 0.024
D6RGV5 and related entries (UniProt P14406)	0.947 ± 0.062	0.926 ± 0.098	0.95 ± 0.051	0.911 ± 0.048	0.928 ± 0.044	0.819 ± 0.15
B4DTY2 and related entries (UniProt O15304)	1.01 ± 0.069	1.05 ± 0.013	1.13 ± 0.12	1.02 ± 0.088	1.04 ± 0.14	1.11 ± 0.17
B7Z3R9 and related entries (UniProt Q8TE99)	0.942 ± 0.039	1.02 ± 0.012	0.994 ± 0.036	0.975 ± 0.03	0.908 ± 0.012	0.966 ± 0.085
A0A0J9YXM6|I3L1G2 and related entries (UniProt Q562E7)	1 ± 0.079	0.986 ± 0.11	0.986 ± 0.1	0.962 ± 0.15	0.976 ± 0.19	0.969 ± 0.12
C9JA28 and related entries (UniProt Q9UNL2)	0.94 ± 0.043	0.919 ± 0.033	0.883 ± 0.032	0.93 ± 0.048	0.885 ± 0.078	0.871 ± 0.071
C9J5X1 and related entries (UniProt P08069)	0.943 ± 0.069	0.973 ± 0.085	1.01 ± 0.12	1.03 ± 0.056	0.951 ± 0.06	0.997 ± 0.1
B4E0E3 and related entries (UniProt Q9H6X4)	0.893 ± 0.082	0.931 ± 0.068	0.898 ± 0.044	0.961 ± 0.018	0.888 ± 0.047	0.851 ± 0.078
A0A5E8 and related entries (UniProt Q99501)	1.05 ± 0.074	1.14 ± 0.072	1.21 ± 0.028	1.23 ± 0.017	1.23 ± 0.063	1.24 ± 0.056
C9IYN3 and related entries (UniProt Q8WVV9+D6W592+C9IYN3)	1.06 ± 0.07	1.03 ± 0.067	1.03 ± 0.079	1.02 ± 0.11	1.06 ± 0.059	1.03 ± 0.058
C9JKL2 and related entries (UniProt O95772)	0.941 ± 0.024	0.945 ± 0.042	0.903 ± 0.016	0.907 ± 0.067	0.988 ± 0.086	0.876 ± 0.029
C9JIZ6 and related entries (UniProt P07602)	0.914 ± 0.092	0.917 ± 0.052	0.896 ± 0.049	0.96 ± 0.083	0.892 ± 0.014	0.816 ± 0.089
B4DJL6 and related entries (UniProt Q96SY0)	0.984 ± 0.052	1 ± 0.024	1.005 ± 0.01	0.991 ± 0.082	1.01 ± 0.015	1.07 ± 0.038
B4DZS0 and related entries (UniProt O76075)	1.05 ± 0.047	1.02 ± 0.044	1.01 ± 0.047	0.999 ± 0.085	1.01 ± 0.053	1.01 ± 0.036
A6NHG8 and related entries (UniProt Q13114)	1.05 ± 0.027	1.07 ± 0.097	1.08 ± 0.11	1.14 ± 0.12	1.19 ± 0.12	1.08 ± 0.1
A0A0U1RRM6|Q8N8S7 and related entries (UniProt Q8N8S7)	0.972 ± 0.041	0.968 ± 0.022	0.933 ± 0.025	0.971 ± 0.023	0.939 ± 0.05	0.963 ± 0.025

Given in CSV form: part of the list above.
Target,NP40-soluble protein abundance (concentration: 1mM),NP40-soluble protein abundance (concentration: 2mM),NP40-soluble protein abundance (concentration: 4mM),NP40-soluble protein abundance (concentration: 6mM),NP40-soluble protein abundance (concentration: 8mM),NP40-soluble protein abundance (concentration: 10mM)
B7Z2Y2 and related entries (UniProt Q14746),1.01 ± 0.065,0.976 ± 0.072,0.982 ± 0.094,0.989 ± 0.096,0.986 ± 0.082,0.957 ± 0.041
C9JYS5 and related entries (UniProt J3QL63+J3QL47+Q9NYZ1+C9JYS5),0.993 ± 0.14,0.944 ± 0.14,0.882 ± 0.092,0.898 ± 0.059,0.998 ± 0.071,0.914 ± 0.074
